For one experiment, the target named is Human OX40L (human) (UniProt P23510). In words: direct ELISA: 1 µg/ml protein coated, 1 µg/ml APX004, goat anti-human HRP-conjugated IgG.
The target of a further experiment is T1, recombinant human KDR (human, UniProt P35968 20-764, limits assumed).
T1 construct: also called VEGFR2
The experiment can be described thus: blocking ELISA of KDR binding to VEGF (screen, OD450 (Blocking) against antibody in nM); blocked ligand VEGF. A general note: ELISA stands for enzyme-linked immunosorbent assay.

Amino acid sequences for entries named in this document (tags omitted). Residues count along the entry.
UniProt P23510, residues 51-183: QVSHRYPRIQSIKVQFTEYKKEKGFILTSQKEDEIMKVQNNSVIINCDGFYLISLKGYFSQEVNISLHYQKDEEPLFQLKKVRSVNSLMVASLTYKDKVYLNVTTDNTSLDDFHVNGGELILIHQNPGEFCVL
UniProt P35968, residues 20-764: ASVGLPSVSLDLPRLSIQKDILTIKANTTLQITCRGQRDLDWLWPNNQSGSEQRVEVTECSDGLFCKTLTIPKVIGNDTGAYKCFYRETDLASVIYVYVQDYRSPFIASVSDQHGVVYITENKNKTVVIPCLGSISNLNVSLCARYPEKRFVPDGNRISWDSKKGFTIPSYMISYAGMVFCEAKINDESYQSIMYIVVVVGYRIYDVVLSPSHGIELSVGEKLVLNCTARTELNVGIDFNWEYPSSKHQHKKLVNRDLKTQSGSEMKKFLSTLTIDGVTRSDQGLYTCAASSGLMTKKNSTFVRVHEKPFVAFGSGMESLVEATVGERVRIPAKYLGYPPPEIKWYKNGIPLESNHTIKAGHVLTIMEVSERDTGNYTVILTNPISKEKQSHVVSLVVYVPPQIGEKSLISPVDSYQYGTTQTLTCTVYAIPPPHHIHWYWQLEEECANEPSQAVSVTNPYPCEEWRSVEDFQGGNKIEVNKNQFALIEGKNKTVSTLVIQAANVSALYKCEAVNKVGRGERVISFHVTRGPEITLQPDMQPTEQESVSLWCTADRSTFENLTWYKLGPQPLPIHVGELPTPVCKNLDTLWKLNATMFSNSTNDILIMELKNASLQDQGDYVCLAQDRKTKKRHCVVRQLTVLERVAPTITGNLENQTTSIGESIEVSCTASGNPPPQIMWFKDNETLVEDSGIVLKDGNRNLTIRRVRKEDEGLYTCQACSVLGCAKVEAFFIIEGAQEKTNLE

Results are given in words; binding and its absence hold for the method and conditions named. Some binding calls cover weakened binding; strength is not graded here.

B1: APX004 (humanized clone 36 anti-KDR antibody) (antibody, human IgG1, kappa, V domains shown)
VH: EVQLVESGGGLVQPGGSLRLSCAASGFDLSSYAMSWVRQAPGKGLEWVGIIGSGGSTYYASWAKGRFTISKDSSKNTVYLQMNSLRAEDTAVYFCARVLWAGSVAYAYHNIWGPGTLVTVSS
VL: DIQMTQSPSSLSASVGDRVTINCQASEELGSNLAWYQQKPGKPPKLLIYSASTLASGVPSRFSGSGSGTDYTLTISSLQPEDFATYYCQYTYFGSSYLGAFGGGTKVEIKR
notes: also called humanized 36
Consider B1, for which the binding entry in the experiment with Human OX40L (human) is “no binding (tested: 1 µg/ml)”.

B2: rabbit anti-KDR antibody clone 92 (antibody, V domains shown)
VH: QSVEESGGRLVTPGTPLTLTCTVSGFSLSSNAMSWVRQAPGEGLEWIGTISSSGSTYYATWVKGRFTISKTSTTVDLKMTSLTAADTATYFCARGDDDVSDYFYYFPIWGPGTLVTVSS
VL: AVVLTQTASPVSGAVGGTVTIKCQASQNIYNNLAWYRQKPGQPPKLLIYAASKLASGVPSRFSGSRSGTQFTLSISDLECADAATYYCQSYYFDSSSTDAAFGGGTEVVVK
notes: rabbit monoclonal antibody, recombinantly expressed and purified for characterization
Regarding B2, the binding entry with recombinant human KDR is “binds”.

B3: rabbit anti-KDR antibody clone 23 (antibody, V domains shown)
VH: QSVEESGGRLVTPGTPLTLTCTVSGFSLSSNAMSWVRQAPGEGLEWIGTISSSGSTYYATWVKGRFTISKTSTTVDLKMTSLTAADTATYFCARGDDDVSDYFYYFPIWGPGTLVTVSS
VL: AVVLTQTASPVSGAVGGTVTIKCQASQNIYNNLAWYRQKPGQPPKLLIYAASKLASGVPSRFSGSRSGTQFTLSISDLECADAATYYCQSYYFDSSSTDAAFGGGTEVVVK
notes: as for B2
As to B3, the binding result in the experiment with recombinant human KDR is given as “binds”.

B4: rabbit anti-KDR antibody clone 24 (antibody, V domains shown)
VH: QSVEESGGRLVTPGTPLTLTCTVSGFSLSSNAMSWVRQAPGEGLEWIGTISSSGSTYYATWVKGRFTISKTSTTVDLKMTSLTAADTATYFCARGDDDVSDYFYYFPIWGPGTLVTVSS
VL: AVVLTQTASPVSGAVGGTVTIKCQASQNIYNNLAWYRQKPGQPPKLLIYAASKLASGVPSRFSGSRSGTQFTLSISDLECADAATYYCQSYYFDSSSTDAAFGGGTEVVVK
notes: as for B2
Regarding B4, the binding entry with recombinant human KDR was “binds”.
